# In patent US12025619B2, “Methods and systems for detecting prostaglandins by LC-MS/MS” (Laboratory Corporation of America Holdings, priority 2020, dated 2024):
# Assays:
# [1] = Selectivity: potential interferents in presence of Prostaglandin D2, urine SPE-LC-MS/MS; settings: charcoal stripped human urine spiked with Prostaglandin D2 and interferent, singlicate
# [2] = Selectivity: potential interferents in presence of Prostaglandin D2, serum SPE-LC-MS/MS (6% BSA); settings: 6% BSA spiked with PGD2 and interferent; for Measured Concentration of Prostaglandin D2 with interferent: singlicate
# [3] = Specificity: potential interferents in blank matrix, urine SPE-LC-MS/MS; design: species or system human; settings: for Specificity, recovered (percent cross-reaction): blank matrix spiked with interferent, urine assay, singlicate
# [4] = Specificity: potential interferents in blank matrix, serum SPE-LC-MS/MS (6% BSA); settings: apparent Prostaglandin D2 in blank 6% BSA spiked with interferent at 1000 pg/mL, singlicate
# [5] = Sample precision, human serum; settings: for Intra-assay Mean Measured Concentration: batches 2-5
# [6] = Spike and recovery, human serum and 6% BSA; settings: for Mean Conc.: 6% BSA; for Mean: human serum
# [7] = Reference interval, human serum
# [8] = interferent spiked at 1000 pg/mL in charcoal stripped human urine (blank matrix), read as Prostaglandin D2
compound,measurement,setting,value
"CCCCC[C@H](O)/C=C/[C@@H]1[C@@H](C/C=C\CC(=O)O)[C@@H](O)C[C@@H]1O [Specificity 1, 2,3-dinor-11b-Prostaglandin F2a]",Measured Concentration of Prostaglandin D2 with interferent,[1],17.5 pg/mL
same,Measured Concentration of Prostaglandin D2 with interferent,[2],8.41 pg/mL
"CCCCC[C@H](O)C/C=C1/C(=O)C[C@H](O)[C@@H]1C/C=C\CCCC(=O)O [Specificity 11, Δ12-Prostaglandin D2]",Measured Concentration of Prostaglandin D2 with interferent,[1],164 pg/mL
same,"Specificity, recovered (percent cross-reaction)",[3],14.7%
same,Measured Concentration,[3]; [8],147 pg/mL
same,Measured Concentration of Prostaglandin D2 with interferent,[2],1990 pg/mL
"CCCCC[C@H](O)/C=C/[C@H]1[C@H](O)CC(=O)[C@@H]1C/C=C\CCCC(=O)O [Specificity 14, Prostaglandin E2]",Measured Concentration of Prostaglandin D2 with interferent,[1],15.1 pg/mL
same,Measured Concentration of Prostaglandin D2 with interferent,[2],8.32 pg/mL
O=C(O)CCCCC(=O)CC[C@H]1C(=O)C=C[C@@H]1CCC(=O)O [tetranor-PGJM],Measured Concentration,[3]; [8],0.228 pg/mL
same,Measured Concentration,[4],0 pg/mL
CCCCC[C@@H](O)/C=C/[C@H]1[C@H](C/C=C\CCCC(=O)O)[C@H](O)C[C@@H]1O [ent-Prostaglandin F2α],Measured Concentration,[3]; [8],0.495 pg/mL
"CCCCC[C@@H](O)/C=C/[C@H]1C(=O)C[C@H](O)[C@@H]1C/C=C\CCCC(=O)O [Specificity 13, 15(R)-Prostaglandin D2]",Measured Concentration of Prostaglandin D2 with interferent,[1],653 pg/mL
same,"Specificity, recovered (percent cross-reaction)",[3],31.3%
same,Measured Concentration,[3]; [8],313 pg/mL
same,Measured Concentration of Prostaglandin D2 with interferent,[2],4230 pg/mL
"CCCCC[C@H](O)/C=C/[C@@H]1[C@@H](C/C=C\CC(=O)O)[C@@H](O)C[C@@H]1O [2,3-dinor-11β-Prostaglandin F2α]",Measured Concentration,[3]; [8],0.176 pg/mL
same,Measured Concentration,[4],0 pg/mL
"CCCCC[C@H](O)/C=C/[C@@H]1[C@@H](C/C=C\CCCC(=O)O)[C@@H](O)C[C@H]1O [Specificity 8, Prostaglandin F2a]",Measured Concentration of Prostaglandin D2 with interferent,[1],19.0 pg/mL
same,Measured Concentration of Prostaglandin D2 with interferent,[2],9.38 pg/mL
CCCCC[C@H](O)/C=C/[C@@H]1[C@H](C/C=C\CCCC(=O)O)[C@@H](O)C[C@H]1O [8-isoProstaglandin F2 α],Measured Concentration,[4],0 pg/mL
"CCCCC/C=C\C=C1\C(=O)C[C@H](O)[C@@H]1C/C=C\CCCC(=O)O [Specificity 10, 15-deoxy-Δ12,14-Prostaglandin D2]",Measured Concentration of Prostaglandin D2 with interferent,[1],15.7 pg/mL
same,Measured Concentration of Prostaglandin D2 with interferent,[2],(14.3) pg/mL
same,Measured Concentration after subtraction of concentration recovered in specificity testing,[2]; 4.63 subtracted,−4.63 = 9.67 pg/mL
CCCCCC(=O)CC[C@@H]1[C@@H](C/C=C\CCCC(=O)O)[C@@H](O)C[C@@H]1O [listing 1 of 2 here],Measured Concentration,[4],0 pg/mL
"CCCCCC(=O)CC[C@H]1C(=O)C[C@H](O)[C@@H]1C/C=C\CCCC(=O)O [Specificity 2, 13,14-dihydro-15-keto Prostaglandin D2]",Measured Concentration of Prostaglandin D2 with interferent,[1],15.5 pg/mL
same,Measured Concentration of Prostaglandin D2 with interferent,[2],9.23 pg/mL
"CCCCC[C@H](O)/C=C/[C@H]1C(=O)C[C@H](O)[C@@H]1C/C=C/CCCC(=O)O (relative stereo) [Specificity 7, 5-trans Prostaglandin D2]",Measured Concentration of Prostaglandin D2 with interferent,[1],19.1 pg/mL
same,Measured Concentration of Prostaglandin D2 with interferent,[2],53.2 pg/mL
"CCCCC[C@H](O)/C=C/[C@H]1C(=O)C[C@H](O)[C@@H]1C/C=C\CCCC(=O)O [PGD2, prostaglandin D2]",Intra-assay Mean Measured Concentration,"[5]; QC1: SPGQC1, Lot 20205, human serum",23.7 pg/mL and 23.22 pg/mL and 24.77 pg/mL
same,Inter-assay Mean Measured Concentration,"[5]; QC1: SPGQC1, human serum",23.9 pg/mL
same,Intra-assay Mean Measured Concentration,"[5]; QC2: SPGQC2, Lot 20205, human serum",183.2 pg/mL and 211.0 pg/mL and 215.2 pg/mL
same,Inter-assay Mean Measured Concentration,"[5]; QC2: SPGQC2, human serum",203.1 pg/mL
same,Intra-assay Mean Measured Concentration,"[5]; QC3: SPGQC3, Lot 20205, human serum",488.5 pg/mL and 478.3 pg/mL and 581.5 pg/mL
same,Inter-assay Mean Measured Concentration,"[5]; QC3: SPGQC3, human serum",516.1 pg/mL
same,Intra-assay Mean Measured Concentration,"[5]; QC4: SPGQC4, Lot 20205, human serum",821.7 pg/mL and 997.7 pg/mL and 989.5 pg/mL
same,Inter-assay Mean Measured Concentration,"[5]; QC4: SPGQC4, human serum",936.3 pg/mL
same,Mean Conc.,[6]; 0.0 pg/mL added to baseline,9.00 pg/mL
same,Mean Conc.,[6]; 6.0 pg/mL added to baseline,14.9 pg/mL
same,Mean Conc.,[6]; 200.0 pg/mL added to baseline,207.3 pg/mL
same,Mean Conc.,[6]; 600.0 pg/mL added to baseline,679.0 pg/mL
same,Mean,[6]; 0.0 pg/mL added to baseline,12.23 pg/mL
same,Mean,[6]; 6.0 pg/mL added to baseline,19.6 pg/mL
same,Mean,[6]; 200.0 pg/mL added to baseline,191.3 pg/mL
same,Mean,[6]; 600.0 pg/mL added to baseline,661.0 pg/mL
same,Measured Concentration (replicates),"[6]; low level Prostaglandin D2 in 6% BSA, 0.0 pg/mL added to baseline",8.62 pg/mL and 8.39 pg/mL and 10.00 pg/mL
same,Measured Concentration (replicates),"[6]; low level Prostaglandin D2 in 6% BSA, 6.0 pg/mL added to baseline",14.2 pg/mL and 15.6 pg/mL and 15.0 pg/mL
same,Measured Concentration (replicates),"[6]; low level Prostaglandin D2 in 6% BSA, 200.0 pg/mL added to baseline",214.0 pg/mL and 210.0 pg/mL and 198.0 pg/mL
same,Measured Concentration (replicates),"[6]; low level Prostaglandin D2 in 6% BSA, 600.0 pg/mL added to baseline",667.0 pg/mL and 658.0 pg/mL
same,Measured Concentration (replicates),"[6]; low level Prostaglandin D2 in human serum, 0.0 pg/mL added to baseline",13.80 pg/mL and 10.60 pg/mL and 12.30 pg/mL
same,Measured Concentration (replicates),"[6]; low level Prostaglandin D2 in human serum, 6.0 pg/mL added to baseline",17.4 pg/mL and 17.0 pg/mL
same,Measured Concentration (replicates),"[6]; low level Prostaglandin D2 in human serum, 200.0 pg/mL added to baseline",186.0 pg/mL (2×) and 202.0 pg/mL
same,Measured Concentration (replicates),"[6]; low level Prostaglandin D2 in human serum, 600.0 pg/mL added to baseline",668.0 pg/mL and 605.0 pg/mL
same,"Reference interval, Prostaglandin D2 Concentration in serum","[7]; 97.5th percentile, normal human serum samples",1.6 to 57 pg/mL
same,Mean Concentration,[7]; mean of the human serum reference interval samples,15.750 ng/mL
"CCCCC/C=C/C=C1C(=O)C[C@H](O)[C@@H]1C/C=C\CCCC(=O)O [15-deoxy-Δ12,14-Prostaglandin D2]",Measured Concentration,[3]; [8],0.348 pg/mL
same,Measured Concentration,[4],4.63 pg/mL
CCCCC[C@H](O)/C=C/[C@H]1[C@H](O)CC(=O)[C@@H]1C/C=C\CCCC(=O)O [Prostaglandin E2],Measured Concentration,[3]; interferent spiked at 352.5 pg/mL (so in the source) in charcoal stripped human urine,No Peak
"CCCCC[C@H](O)C/C=C1/C(=O)C=C[C@@H]1C/C=C\CCCC(=O)O [Specificity 4, Δ12-Prostaglandin J2]",Measured Concentration of Prostaglandin D2 with interferent,[1],17.8 pg/mL
same,Measured Concentration of Prostaglandin D2 with interferent,[2],9.30 pg/mL
"CCCCCC(=O)CC[C@H]1C(=O)C[C@H](O)[C@@H]1C/C=C\CCCC(=O)O [13,14-dihydro-15-keto Prostaglandin D2]",Measured Concentration,[3]; [8],0.136 pg/mL
same,Measured Concentration,[4],0.0169 pg/mL
CCCCC[C@H](O)/C=C/[C@@H]1[C@@H](C/C=C\CCCC(=O)O)[C@@H](O)C[C@H]1O [Prostaglandin F2α],Measured Concentration,[3]; [8],0.541 pg/mL
CCCCCC(=O)CC[C@@H]1[C@@H](C/C=C\CCCC(=O)O)[C@@H](O)C[C@@H]1O [listing 2 of 2 here],Measured Concentration,[3]; [8],0.191 pg/mL
"O=C(O)CCCCC(=O)CC[C@H]1C(=O)C=C[C@@H]1CCC(=O)O [Specificity 5, tetranor-PGJM]",Measured Concentration of Prostaglandin D2 with interferent,[1],16.4 pg/mL
same,Measured Concentration of Prostaglandin D2 with interferent,[2],8.50 pg/mL
"CCCCCC(=O)CC[C@@H]1[C@@H](C/C=C\CCCC(=O)O)[C@@H](O)C[C@@H]1O [Specificity 6, 11b-13,14-dihydro-15-keto Prostaglandin F2a]",Measured Concentration of Prostaglandin D2 with interferent,[1],19.6 pg/mL
same,Measured Concentration of Prostaglandin D2 with interferent,[2],9.92 pg/mL
CCCCC[C@H](O)/C=C/[C@@H]1[C@H](C/C=C\CCCC(=O)O)[C@@H](O)C[C@H]1O [8-isoProstaglandin F2α],Measured Concentration,[3]; [8],0.227 pg/mL
CCCCC[C@@H](O)/C=C/[C@H]1[C@H](C/C=C\CCCC(=O)O)[C@H](O)C[C@@H]1O [ent-Prostaglandin F2 α],Measured Concentration,[4],0.749 pg/mL
CCCCC[C@H](O)C/C=C1/C(=O)C=C[C@@H]1C/C=C\CCCC(=O)O [Δ12-Prostaglandin J2],Measured Concentration,[3]; [8],0.191 pg/mL
"O=C(O)CCCCC(=O)CC[C@H]1C(=O)C[C@H](O)[C@@H]1CCC(=O)O [Specificity 3, PGDM]",Measured Concentration of Prostaglandin D2 with interferent,[1],18.9 pg/mL
same,Measured Concentration,[3]; [8],0.228 pg/mL
same,Measured Concentration of Prostaglandin D2 with interferent,[2],9.84 pg/mL
same,Measured Concentration,[4],0 pg/mL
"CCCCC[C@H](O)/C=C/[C@@H]1[C@H](C/C=C\CCCC(=O)O)[C@@H](O)C[C@H]1O [Specificity 9, 8-isoProstaglandin F2a]",Measured Concentration of Prostaglandin D2 with interferent,[1],16.3 pg/mL
same,Measured Concentration of Prostaglandin D2 with interferent,[2],8.50 pg/mL
CCCCC[C@H](O)/C=C/[C@H]1C(=O)C[C@H](O)[C@@H]1C/C=C/CCCC(=O)O [5-trans Prostaglandin D2],Measured Concentration,[3]; [8],25.2 pg/mL
"CCCCC[C@@H](O)/C=C/[C@H]1[C@H](C/C=C\CCCC(=O)O)[C@H](O)C[C@@H]1O [Specificity 12, ent-Prostaglandin F2a]",Measured Concentration of Prostaglandin D2 with interferent,[1],18.5 pg/mL
same,Measured Concentration of Prostaglandin D2 with interferent,[2],10.8 pg/mL

# Values joined by “and” are separate entries in the source; they are usually repeats but may differ in a detail not shown here. Equal values may be shown once.
